{"source": "PubChem BioAssay AID504444", "about": "(National Center for Advancing Translational Sciences (NCATS), 2011)", "note": "About 7,500 (2.1%) of roughly 360,000 compounds were called active. The shares of active, inactive and inconclusive entries below differ from those in the screen. Calls come from the whole dose curve; as a rule, active = well fitted inhibition curve with a large enough effect; inconclusive = small, poorly fitted or top-dose-only effect, or effect the other way; inactive = flat fitted curve, though single readings scatter. Potencies of inconclusive entries are doubtful fits and often do not repeat. % is set by controls: 0 for no effect and ±100 for the full control effect; potency is the fitted concentration of half-maximal effect."}
{"test": "Nrf2 qHTS screen for inhibitors; note: nearly all actives have a fitted effect of over 60% in size", "details": "A549 ARE-Fluc reporter, luciferase luminescence, 18-24 h; activity change, negative = inhibition: at 46 µM (top of the series)", "from_the_text": "NIH Molecular Libraries Probe Production Network [MLPCN]\nNIH Chemical Genomics Center [NCGC]\nAssay Provider: Shyam Biswal, Johns Hopkins University\nNrf2 is a transcription factor that maintains cellular redox homoestasis and protects cells from xenobiotics. Nrf2 binds to the antioxidant response element (ARE) to induce gene expression of a broad spectrum of genes that encode for antioxidants. […] Finding a small molecule that act as an inhibitor of Nrf2 function would represent a novel therapeutic target that could lead to improvement in survival of patients undergoing chemo- and/or radio- therapy.\nThis is the Nrf2 activity measured in the luminescent read.\n1. Shibata, T., et al., Genetic Alteration of Keap1 Confers Constitutive Nrf2 Activation and Resistance to Chemotherapy in Gallbladder Cancer. Gastroenterology, 2008.\n2. Sjoblom, T., et al., The consensus coding sequences of human breast and colorectal cancers. Science, 2006. 314(5797): p. 268-74.\nNCGC Assay Protocol Summary:\nA concentration-response assay was performed with A549 ARE_Fluc cells which are suspended in 5% FBS OPTI-MEM. Five uL were dispensed into 1536-well white TC-treated plate using the Kalypsys dispenser to achieve a density of 5000 cells/well in all columns except column 1. The plate is incubated at 37deg C at 5% CO2 for 2 hours before 23 nL of compounds are added with the Kalypsys pin tool equipped with a 1,536-pin array containing 10-nL slotted pins (FP1S10, 0.457-mm diameter, 50.8 mm long; V&P Scientific). The control compounds Budesonide and Staurosporine are both added at a concentration of 2mM and Budesonide is also added as a 1:10 titration, starting at 200uM, to achieve dose-response. After an 18-24 hour incubation at 37deg C at 5% CO2, 5ul of medium is added to column 1. Afterwards 1ul of 5x of CellTiter-Fluor (Promega) is added to every well. The plate is then incubated at 37deg C at 5% CO2 for 30 minutes before they are read on the ViewLux (Perkin Elmer) for a fluorescent read Ex=405(10)/Em=525(10) for a 3 second exposure, 2x binning, and high gain. Then 3 uL of 3x BugLite is dispensed into all wells and the plate is incubated at ambient room temperature for 15 minutes. Afterwards another ViewLux read is performed using the clear filter to get a luminescent read with the settings of 40 second exposure, 2x binning, and high gain. Cytotoxicity is assessed through the first fluorescent read and then biochemical activity against Nrf2 is measured in the luminescent read."}
{"smiles": "O=C(NNC(=O)c1ccc(Cl)cc1Cl)c1csc(-c2cccnc2)n1", "Potency": "inconclusive: 32.6 µM [falling, single point]"}
{"smiles": "COc1cccc(-n2c(C)nn(CCOc3ccccc3)c2=O)c1", "Potency": "inconclusive: 11.6 µM [activator, partial curve, poor fit]"}
{"smiles": "COc1ccc(NC(=O)Cn2c(=O)n(-c3ccc(C)cc3)c(=O)c3c2cnn3C)cc1", "activity change, negative = inhibition": "inactive: 20.9% [at 9.27 µM]"}
{"smiles": "O=C(Nc1ccc2nc(SCC(=O)N3CCCC3)sc2c1)c1cccc(Cl)c1", "Potency": "inconclusive: 25.9 µM [falling, single point]"}
{"smiles": "CN(C)c1nc(N)c([N+](=O)[O-])c(NCc2ccccc2)n1", "Potency": "inconclusive: 11.6 µM [activator, partial curve]"}
{"smiles": "COc1ccc(-c2cc3nc(C4CCN(C(=O)OC(C)(C)C)CC4)c(C(=O)O)cn3n2)cc1", "Potency": "inconclusive: 16.4 µM [falling, partial curve, poor fit]"}
{"smiles": "Cc1cc(N2CCOCC2)n2ncc(-c3ccc(Cl)cc3)c2n1", "Potency": "inconclusive: 0.411 µM [activator, full curve]"}
{"smiles": "Cc1ccc(C2NC(c3ccc(C)cc3)C([N+](=O)[O-])C(C)(C)C2[N+](=O)[O-])cc1", "note": "(stereo not given)", "Potency": "inconclusive: 16.4 µM [falling, partial curve, poor fit]"}
{"smiles": "Cc1ccc(-n2ncc3c(=O)[nH]c(SCC(=O)N4CCN(c5ccccc5)CC4)nc32)cc1", "Potency": "inconclusive: 29.1 µM [falling, single point]"}
{"smiles": "COc1ccc(Cn2c(=O)[nH]c3cc(C(=O)N4CCN(c5ccccc5OC)CC4)ccc3c2=O)cc1", "Potency": "active: 20.6 µM"}
{"smiles": "CCOC(=O)c1c(NC2OC(=O)c3c2ccc(OC)c3OC)sc(C(=O)OC(C)(C)C)c1C", "note": "(stereo not given)", "Potency": "inconclusive: 5.8 µM [activator, partial curve, poor fit]"}
{"smiles": "COc1ccc(C(O)(C(C)C)C(CN2CCOCC2)c2ccc(Cl)cc2)cc1", "note": "(stereo not given)", "Potency": "inconclusive: 25.9 µM [falling, partial curve, poor fit]"}
{"smiles": "Cc1cc(Br)ccc1NC(=O)CN(C)C(=O)CCSc1ccc(F)cc1", "Potency": "inconclusive: 25.9 µM [falling, partial curve, poor fit]"}
{"smiles": "CCOC(=O)c1c(C)[nH]c(C)c1S(=O)(=O)N(C)CC(=O)Nc1ccc(C)c(N(C)C)c1", "Potency": "inconclusive: 6.51 µM [falling, partial curve, poor fit]"}
{"smiles": "Cn1c(/C=C/c2cccc([N+](=O)[O-])c2)c([N+](=O)[O-])c(=O)n(C)c1=O", "Potency": "inconclusive: 16.4 µM [falling, single point]"}
{"smiles": "CC(C)C(=O)Nc1cccc(NC(=S)NC(=O)C(c2ccccc2)c2ccccc2)c1", "Potency": "inconclusive: 23.1 µM [falling, single point]"}
{"smiles": "O=C(NCCc1ccc2c(c1)OCCO2)c1cccc(F)c1", "Potency": "inconclusive: 13 µM [falling, partial curve]"}
{"smiles": "COc1ccc(-c2nsc(NC(=O)C(C)Oc3ccc(Cl)c(C)c3)n2)cc1", "note": "(stereo not given)", "Potency": "inconclusive: 20.6 µM [falling, single point]"}
{"smiles": "CCn1cc(C(=O)NCc2ccc3c(c2)OCO3)c(=O)c2cc(F)c(N3CCN(C(=O)c4ccco4)CC3)cc21", "Potency": "active: 16.4 µM"}
{"smiles": "O=C(c1ccc(COc2ccccc2Br)o1)N1N=C(C(F)F)CC1(O)C(F)F", "note": "(stereo not given)", "Potency": "inconclusive: 16.4 µM [falling, single point]"}
{"smiles": "O=C(NCc1ccco1)c1nc2ccccc2s1", "Potency": "inconclusive: 9.2 µM [activator, partial curve]"}
{"smiles": "Cc1ccc(C)c(Cn2c(=O)cc(C)c3c(C)nn(-c4cccc(F)c4)c32)c1", "activity change, negative = inhibition": "inactive: 3.52%"}
{"smiles": "COC(=O)COc1cc(C)cc2oc(=O)c(CC(=O)OC)c(C)c12", "activity change, negative = inhibition": "inactive: 25.9%"}
{"smiles": "COc1ccccc1NS(=O)(=O)c1cc(NC(=O)c2cccnc2)ccc1N1CCCCC1", "Potency": "active: 20.6 µM"}
{"smiles": "Nc1cc(=O)[nH]c(SCC(=O)Nc2ccc3c(c2)CCC3)n1", "Potency": "inconclusive: 29.1 µM [falling, single point]"}
{"smiles": "COc1ccc(NC(=O)c2c(C)oc3ccc(O)c(CN4CCCCCC4)c23)cc1Cl", "Potency": "inconclusive: 3.66 µM [activator, single point]"}
{"smiles": "O=C(c1ccc2c(c1)OCCO2)N1CCN(c2ncc(C(F)(F)F)cc2Cl)CC1", "Potency": "inconclusive: 18.4 µM [falling, partial curve, poor fit]"}
{"smiles": "COc1ccc(/C=C/c2nc(C#N)c(NCCc3ccccc3)o2)cc1OC", "Potency": "inconclusive: 29.1 µM [activator, single point]"}
{"smiles": "O=C(c1ccco1)N(CC1CCCO1)c1nc(-c2ccccc2)cs1", "note": "(stereo not given)", "Potency": "inconclusive: 0.82 µM [activator, full curve, poor fit]"}
{"smiles": "Cc1ccc(NC(=O)CC2S/C(=N/c3nccs3)N(C)C2=O)cc1C", "note": "(stereo not given)", "Potency": "inconclusive: 29.1 µM [falling, single point]"}
{"smiles": "Cc1nc2c(-c3ccc(Cl)cc3)cnn2c(N)c1-c1ccc(F)cc1", "Potency": "inconclusive: 6.51 µM [activator, partial curve]"}
{"smiles": "CC/C(=N\\N=C(/CC)c1ccccc1N)c1ccccc1N", "Potency": "inconclusive: 14.6 µM [activator, partial curve, poor fit]"}
{"smiles": "CCc1nc(N2CCCCC2C(=O)O)c2oc3ccccc3c2n1", "note": "(stereo not given)", "Potency": "inconclusive: 29.1 µM [falling, single point]"}
{"smiles": "COc1ccc(OCC(=O)Nc2ccc(C(=O)Nc3ccccc3C(=O)O)cc2)cc1", "activity change, negative = inhibition": "inactive: -20.1%"}
{"smiles": "Cc1cccc(C(=O)Nc2c(C(=O)NCc3ccc(Cl)cc3)sc3nc(C)cc(C)c23)c1", "Potency": "inconclusive: 18.4 µM [falling, partial curve]"}
{"smiles": "COc1ccc(OC)c(CCNC(=O)c2cnn(-c3ccccc3Cl)c2C2CCN(C(=O)OC(C)(C)C)CC2)c1", "Potency": "inconclusive: 25.9 µM [falling, single point]"}
{"smiles": "COc1cccc(NC(=O)CN(C)C(=O)c2ccccc2Sc2ccccc2C#N)c1", "activity change, negative = inhibition": "inactive: -3.97%"}
{"smiles": "CC1(C)CC(=O)c2sc(N3CCCCC3)nc2C1", "Potency": "inconclusive: 9.2 µM [activator, partial curve]"}
{"smiles": "O=[N+]([O-])c1nn(-c2ccc(Cl)cc2)n(O)c1=NCc1ccccc1Cl", "Potency": "inconclusive: 20.6 µM [activator, partial curve]"}
{"smiles": "Cc1ccccc1C(=O)Nc1c(C)nc(Nc2ccccc2)nc1Nc1ccccc1", "Potency": "inconclusive: 29.1 µM [falling, single point]"}
{"smiles": "CC(=O)N1c2ccc(S(=O)(=O)NCC3CCC(C(=O)Nc4cccc(C)c4C)CC3)cc2CC1C", "note": "(stereo not given)", "Potency": "inconclusive: 8.2 µM [falling, partial curve]"}
{"smiles": "c1ccc(Cn2nnc3c(N4CCN(Cc5ccc6c(c5)OCO6)CC4)ncnc32)cc1", "Potency": "inconclusive: 29.1 µM [falling, single point]"}
{"smiles": "CCCc1noc(-c2ccc(-c3ccccc3)cc2)n1", "Potency": "inconclusive: 10.3 µM [activator, partial curve, poor fit]"}
{"smiles": "Cc1ccc(NC(=O)Cn2nc(C)n3cccc3c2=O)c(C)c1", "Potency": "inconclusive: 20.6 µM [activator, partial curve]"}
{"smiles": "CCOc1ccc(N2C(=O)C(=O)/C(=C(/O)c3ccccc3)C2c2ccccc2[N+](=O)[O-])cc1", "note": "(stereo not given)", "Potency": "inconclusive: 2.06 µM [activator, partial curve, poor fit]"}
{"smiles": "CN(C)/C=N/c1ncc(C(=O)c2ccccc2)s1", "Potency": "inconclusive: 3.26 µM [activator, single point]"}
{"smiles": "COc1cc(/C=C/C(=O)OCC(=O)Nc2ccc(S(=O)(=O)N3CCCC3)cc2)ccc1O", "Potency": "inconclusive: 32.6 µM [falling, partial curve, poor fit]"}
{"smiles": "O=c1oc2ccccc2c(Nc2ccc3ccccc3c2)c1[N+](=O)[O-]", "Potency": "inconclusive: 6.51 µM [falling, partial curve, poor fit]"}
{"smiles": "N/C(=N\\OC(=O)c1ccc([N+](=O)[O-])cc1)c1ccccn1", "Potency": "inconclusive: 0.82 µM [activator, partial curve]"}
{"smiles": "COc1cc(C(=O)NCCNC(=O)c2ccco2)cc(OC)c1OC", "Potency": "inconclusive: 11.6 µM [falling, partial curve, poor fit]"}
{"smiles": "COc1ccc(C2CC3(O)CC(C#N)(C(=O)N3)C2(C#N)C#N)cc1", "note": "(stereo not given)", "Potency": "inconclusive: 13 µM [falling, single point]"}
{"smiles": "Cc1ccc(Nc2nc(-c3ccccc3)cs2)nc1", "Potency": "inconclusive: 0.58 µM [activator, partial curve, poor fit]"}
{"smiles": "COc1cc(-c2ccc3ncnc(NCc4ccc(C)o4)c3c2)cc(OC)c1OC", "Potency": "inconclusive: 2.91 µM [falling, partial curve]"}
{"smiles": "CN=C(c1ccc(C)cc1)n1c(=S)nc(-c2ccc(C)cc2)n(C)c1=S", "Potency": "inconclusive: 8.2 µM [activator, partial curve]"}
{"smiles": "COc1ccc(N/N=C(/C#N)S(=O)(=O)c2nsc(C)c2C#N)cc1", "Potency": "inconclusive: 2.31 µM [falling, partial curve, poor fit]"}
{"smiles": "COc1ccc(OC)c(CCNC(=O)CN2C(=O)COc3ccc(S(=O)(=O)N4CCOCC4)cc32)c1", "Potency": "inconclusive: 29.1 µM [activator, single point]"}
{"smiles": "CCc1ccc(N=C2NC(=O)/C(=C/c3cc(OC)c(O)c(OC)c3)S2)cc1", "activity change, negative = inhibition": "inactive: -10.8%"}
{"smiles": "Cn1c(=O)[nH]c(=O)c2c1nc(N1CCC(Cc3ccccc3)CC1)n2Cc1ccccc1", "Potency": "inconclusive: 25.9 µM [falling, partial curve, poor fit]"}
{"smiles": "COc1ccc(C(C(=O)NCc2ccccc2)N(Cc2ccco2)C(=O)c2snc(C(N)=O)c2N)cc1", "note": "(stereo not given)", "activity change, negative = inhibition": "inactive: -7.24%"}
{"smiles": "CCOc1ccccc1N1CC(c2nc3ccccc3n2Cc2c(C)cc(C)cc2C)CC1=O", "note": "(stereo not given)", "Potency": "inconclusive: 29.1 µM [falling, single point]"}
